Test results from patent US20210085676A1, “TREATMENT FOR AGE- AND OXIDATIVE STRESS-ASSOCIATED MUSCLE ATROPHY AND WEAKNESS” (Oklahoma Medical Research Foundation, priority 2018, published 2021).
“Also recorded” adds a separate entry of the source.

Test system: SERCA1 and SERCA2
Test: SERCA1 and SERCA2 mRNA (real-time PCR) and protein (western blot) levels in gastrocnemius of treated mice
Type: in vivo, mouse
Conditions: 50 mg/kg i.p. 3 times per week, 7 weeks
Method: Animals. The generation and characterization of the Sod1^−/− mice is described in detail elsewhere (3, 24). Female ≈2 months old C57BL/6J wild-type (WT; n=12-18) and Sod1^−/− mice (n=12-18) were divided into four groups and treated with either vehicle (10% DMSO, 10% Tween-80 in PBS) or CDN1163 (50 mg/kg) by intraperitoneal injection three times per week for 7 weeks. Care and management of the mice was executed according to The Guide for the Care and Use of Laboratory Animals and approved by the institutional Animal Care and Use Committee at the Oklahoma Medical Research Foundation (OKC, Okla., USA). Protein preparation and western blot. Muscles were homogenized in RIPA buffer containing 50 mM Tris (pH 7.4), 150 mM NaCl, and protease inhibitors. Protein was quantified using the Bio-Rad kit (Sigma-Aldrich, Poole, UK) and transferred to nitrocellulose membrane after electrophoresis using 8-15% polyacrylamide gels. Bands were scanned and quantified using Gene Tool system (SynGene—Frederick, Md.). All image intensities were normalized to protein intensity based on the ponceau stain. Quantification of mRNA levels using real-time PCR. […] The data were analyzed using the ΔΔCt method. […] Ca^2+-dependent Ca^2+-ATPase activity was measured in gastrocnemius muscle homogenates to determine the effects of CDN1163 on SERCA function. […]

Cc1ccc2cccc(NC(=O)c3ccc(OC(C)C)cc3)c2n1 [CDN1163, 4-(1-Methylethoxy)-N-(2-methyl-8-quinolinyl)-benzamide]
SERCA1 and SERCA2 mRNA levels: no effect; also recorded: not altered
SERCA1 and SERCA2 protein levels: no effect; also recorded: not altered
